No constants are given. Whether binding was seen depends on the method and setting. Binding seen in cells or lysates may run through a third protein. Some binding calls cover weakened binding; strength is not graded here.
Target: connexin43 (mouse (endogenous in primary osteoblasts)) (UniProt P23242)
Assay: co-IP; Pierce Co-immunoprecipitation Kit; lysate of primary osteoblasts; Cx43 antibody for the bait added at 1:30, overnight; eluate blotted for E11 and beta-actin; rabbit IgG as negative control

Amino acid sequences for entries named in this document (tags omitted).
UniProt P23242: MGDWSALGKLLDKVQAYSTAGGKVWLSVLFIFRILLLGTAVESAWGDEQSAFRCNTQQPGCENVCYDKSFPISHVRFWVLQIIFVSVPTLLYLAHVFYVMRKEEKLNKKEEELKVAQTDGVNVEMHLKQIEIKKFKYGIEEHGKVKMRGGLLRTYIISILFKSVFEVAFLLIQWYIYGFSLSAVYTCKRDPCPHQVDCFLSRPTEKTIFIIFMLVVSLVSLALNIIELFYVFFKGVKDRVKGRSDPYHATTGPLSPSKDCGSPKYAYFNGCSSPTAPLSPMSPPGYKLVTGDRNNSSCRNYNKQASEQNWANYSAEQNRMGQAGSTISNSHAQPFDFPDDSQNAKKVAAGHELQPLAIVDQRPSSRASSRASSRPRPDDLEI

B1: E11 (protein, UniProt Q62011 23-172)
chain: GTIGVNEDDIVTPGTGDGMVPPGIEDKITTTGATGGLNESTGKAPLVPTQRERGTKPPLEELSTSATSDHDHREHESTTTVKVVTSHSVDKKTSHPNRDNAGDETQTTDKKDGLPVVTLVGIIVGVLLAIGFVGGIFIVVMKKISGRFSP
  binding: binds
